The values that follow come from PMC6365456.

Protein sequences, listed by entry. Tags and fused reporters are not part of them. Lines headed by an entry give the natural chain unless they say otherwise; changes in a name come on top.
UniProt Q04206: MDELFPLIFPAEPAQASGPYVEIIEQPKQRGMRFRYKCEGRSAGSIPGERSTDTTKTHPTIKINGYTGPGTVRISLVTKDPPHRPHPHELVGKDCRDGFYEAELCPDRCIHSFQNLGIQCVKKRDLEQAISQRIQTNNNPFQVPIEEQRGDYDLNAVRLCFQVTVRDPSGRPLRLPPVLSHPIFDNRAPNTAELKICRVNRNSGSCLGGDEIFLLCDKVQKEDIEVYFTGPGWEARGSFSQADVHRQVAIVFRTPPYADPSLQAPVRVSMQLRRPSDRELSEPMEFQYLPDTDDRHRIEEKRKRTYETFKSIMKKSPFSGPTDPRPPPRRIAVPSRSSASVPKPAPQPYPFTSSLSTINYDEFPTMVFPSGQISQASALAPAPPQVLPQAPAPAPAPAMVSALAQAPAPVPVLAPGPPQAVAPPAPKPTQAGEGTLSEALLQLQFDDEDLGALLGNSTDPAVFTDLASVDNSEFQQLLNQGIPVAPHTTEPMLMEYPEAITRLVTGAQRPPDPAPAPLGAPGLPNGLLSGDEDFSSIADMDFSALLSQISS
UniProt O14543: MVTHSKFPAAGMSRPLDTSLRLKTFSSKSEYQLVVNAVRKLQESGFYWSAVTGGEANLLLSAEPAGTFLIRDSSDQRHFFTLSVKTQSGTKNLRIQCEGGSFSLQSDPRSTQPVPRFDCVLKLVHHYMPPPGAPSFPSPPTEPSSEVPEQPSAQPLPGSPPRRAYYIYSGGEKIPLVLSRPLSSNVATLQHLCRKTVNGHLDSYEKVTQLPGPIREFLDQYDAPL

Results are given in words; binding and its absence hold for the method and conditions named. Binding seen in cells or lysates may run through a third protein. Some results given as binding are weak or reduced against the parent protein; the word gives no strength.

In this assay the target is p65 (subunit of NF-κB complex) (human (endogenous in HEK-293T)) (UniProt Q04206). Description: co-IP; HEK-293T cell lysate (untransfected, or transfected with Myc-SOCS3 mutants) incubated with anti-p65 conjugated agarose resin (Pierce Direct IP kit) overnight at 4°C; eluted proteins analysed by western blotting.
Turning to “Myc-SOCS3 (34–185 aa) mutant (from UniProt O14543 34-185) (domain or fragment)”, the binding result is reported as “binds”.

As for “Myc-SOCS3 (129–225 aa) mutant lacking SH2 domain (from UniProt O14543 129-225) (domain or fragment)”, the binding result is on record as “no binding”. On to “Suppressor of Cytokine Signaling 3 (SOCS3) (from UniProt O14543 1-225)”, for which the binding entry is reported as “binds”.
